Assay results published in PubChem BioAssay AID1347423 (Functional Genomics Laboratory (NCATS/FGL), 2020).
Out of some 52,000 sequences screened, about 210 (0.4%) were called active.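 The calls were made as follows: active = gene whose silencing raises cell survival under the drug, median off-target-corrected z-score across its silencing RNAs 2 or more; inactive = the rest.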 Some of the results follow.

Experiment: Resistance to Poly (ADP-Ribose) Polymerase inhibitor: Gene Identification via Genome-wide siRNA Screen
Details: mouse BRCA2 R2336H ES cells, olaparib, CellTiter-Glo viability; hits give high values
In short: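 Genome-wide siRNA screen (3 siRNAs/gene, 20 nM) in mouse ES cells carrying hypomorphic BRCA2 R2336H; olaparib 500 nM added 48 h post-transfection, CellTiter-Glo viability 72 h later. Normalized to plate-median negative control; MAD z-scores, gene median, seed-adjusted.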

Sequence | z-score
GCCAUGUACGCAAAAUAGUTT against 2600001B17Rik | inactive: 1.19
CCAUCAUACGAUGAUCUUATT against Pmaip1 | inactive: -0.0704
GGGCAGUUUUCUCUAUAGGTT against 1110034O07Rik | inactive: 0.236
CGAUGAUCCUUACCUCAUATT against 2810422B04Rik | inactive: -1.05
CGAUUACUGAACACUAUAUTT against Metap1 | inactive: 0.998
GGAAGUGCCACCUGUAUUATT against A630005A06Rik | inactive: -0.934
GGAAAAGGAGGAGAGUUAUTT against 4921504I05Rik | inactive: 0.668
GCCAAGCAUUGGAACCAUGTT against 1700112C13Rik | inactive: -0.0624
GCAUCACUUGGGUGGACAATT against Olfr1280 | inactive: 2.21
GGAAGAUCAAAAGGUCAUUTT against Mybl2 | inactive: 1.29
GGCAAACCAGGAAAAGGUCTT against Abhd2 | inactive: -0.623
GGCUUCAUGAUGUCCUGCATT against Cdk5 | inactive: -1.36
CCUUCUAUGGCCUUCUGAATT against Hapln4 | inactive: -0.0112
GGUCAACAACGAAUCCUUUTT against Rho | inactive: 0.0505
GGAAUUAACAUCUUCUUACTT against Muc4 | inactive: 0.154
GGAUCCAGAACUAAAAAUCTT against Pcdhga2 | inactive: 0.011
GGUUUGCAUCUUCUUAUUCTT against Myd88 | inactive: 2.91
CCCUCUAGGUUCUUUAGCCTT against Sox7 | inactive: -0.00507
CCAUUGAGGUAAUGUUUGATT against 0610042C05Rik | inactive: 0.183
GGCAAGAAUAUGAAAAGCUTT against Hmmr | inactive: -0.352
GGUAUUCCAAUAACUGUACTT against Fip1l1 | inactive: -0.238
CCUCUACGAUGACUGGAUGTT against Sh3bp1 | inactive: 0.552
GGUUUUUGAACAAAGGAGATT against Slc11a2 | inactive: 0.0416
GGUGUGGUGGACUAAAUAUTT against 2310001H12Rik | inactive: -1.35
CCGUAGACUCGGUGAAGCUTT against Prosc | inactive: 0.147
GGAUGCCAGAAGAAUAUUCTT against Pnlip | inactive: 0.789

Two entries drawn at random from those above, as already listed:
Sequence | z-score
CGAUGAUCCUUACCUCAUATT against 2810422B04Rik | inactive: -1.05
GGAUCCAGAACUAAAAAUCTT against Pcdhga2 | inactive: 0.011

(list continues)

Sequence | z-score
GGCGGAAGUGUUAGACAUGTT against Art3 | inactive: 1.04
GGCCAGAAUAUCAUCGUCATT against Rbks | inactive: -0.445
CCACGAGAUGGAAUAUCGCTT against Cyyr1 | inactive: 0.324
UCAGUGUGCUGUUUCUUUUTT against Olfr1359 | inactive: 0.64
GGACUUUGAGACUCAUCCGTT against 6330442E10Rik | inactive: -0.244
CCUAAAGCAUUGUUCAUAGTT against 5330420D20Rik | inactive: -0.303
CCGAUUCAGGUAUUGCACGTT against Prkra | inactive: -0.594
GGAAGCCCACUACAACAAUTT against Krt1-19 | inactive: 0.472
GGAACAUCAGGUGCAUGUGTT against Pkd1 | inactive: 1.9
GGAGAAAGCACUCAAUUUGTT against Dlgap4 | inactive: 1.95
GGAAACAGCAAUCAAAUACTT against Dhx40 | inactive: -0.726
CCUGUGCCUCGUUUUAUUUTT against 4930430E16Rik | inactive: 0.737
GGCUACCAUGGACACAUCATT against Magea7 | inactive: -1.72
GCUGUCCAGACAAACACUATT against Tnfrsf7 | inactive: -1.36
GGAUCCGCAUCUACAAGCUTT against 1700016K19Rik | inactive: 0.716
GCAAUGUGUGGUAAGUAAATT against 6720487G11Rik | inactive: -1.21
GGGCAAACCAGUUAGCAGATT against Sca2 | inactive: 0.262
GCCAUUCGCACAUACCAGATT against Sec8l1 | inactive: -0.252
GAUGUUUGUUUUCAGUGCCTT against Olfr1330 | inactive: 0.366
GGAUCCUUCGCUUUUAUCGTT against Nox1 | inactive: 0.428
GCACUACUGCCCAUGAUUGTT against Agrn | inactive: -1.1
GGGAUUGAACUUAGGUUUGTT against 6330512M04Rik | inactive: -0.512
GGAGGAGAUGAUAAAGAUUTT against 3930401K13Rik | inactive: 1.45
GGAAAGGACCACCUAAGUUTT against Pde6g | active: -2.22
GGACUACCAUCGACCUUCATT against Nek2 | inactive: -0.858
GGCUAAAUCAAAGUUAUGATT against Speer4f | inactive: 0.859

Single values from the results shown.
CCGUAGACUCGGUGAAGCUTT against Prosc | z-score: inactive: 0.147
CGAUUACUGAACACUAUAUTT against Metap1 | z-score: inactive: 0.998

(next part)

Sequence | z-score
GCUGCUACGUGUUCAAGGUTT against Ctss | inactive: -0.0462
GGAAUGCUGAAGUAAAAAATT against Olfr1259 | inactive: 0.47
GGACCUCCUCCCAAAGAUATT against Snrpb | inactive: -2.56
GCUCUACCGUUAAGUUAUUTT against Eif4el3 | inactive: -0.961
GCCCUUUAUAUGACUUGAGTT against Kcnj2 | inactive: 0.721
GGGCAUUGGUGACUUUGAATT against BC030867 | inactive: -1.6
GGAGAUCAAGCCGCACAUGTT against Ccnd3 | inactive: 0.352
GCUACGUGAGAAUUCCGCCTT against Cutl1 | inactive: 0.298
GGAACUCUGCCAAAGCUGUTT against Dffa | inactive: 0.409
GCCUAUGCUCAACUUCUCGTT against Thap4 | inactive: -1.94
CCGUCUGAUAGCAAUCCGATT against Olfr632 | inactive: 0.895
GGCAGUAUCCUUAUGCAUGTT against Tebp | inactive: 0.693
GGAGAAGAGUCAAGAGCUCTT against 3110035E14Rik | inactive: -0.416
GGAGCUGGUGCUGAAGAACTT against 1810031K17Rik | inactive: -2.29
GGACGUACACAUUUACAAATT against 2310038H17Rik | inactive: -0.0445
GGGUCUGAAUGACAGCAUCTT against Cd53 | inactive: 0.466
CGAGCAGACCUCUAUACAGTT against Nit2 | inactive: -0.565
GCCUAACUGCCCAGAAUCUTT against Psd4 | inactive: 0.846
CGGAUGAAUUUGAUGGUCUTT against Ctbp2 | inactive: -0.0292
GGCGAGAGAGAUGAGUAAATT against 2010002N04Rik | inactive: -2.22
GGAAGUAAAGAGGAUCUCATT against AI427515 | inactive: -1.15
GCAGCAUUUUAUCAACCAGTT against C030046I01Rik | inactive: -0.792
GGCUUCACCAAAUGUGCAGTT against Mrpl50 | inactive: -0.674
CCUUCAAUGAGAGCUUUAGTT against Olfr1157 | inactive: -1.52
CGGUCCUUGAAAGAGAUGGTT against Prkcsh | inactive: -0.549
GGAGAGGUGUAAUGUAUUCTT against 4921513O04 | inactive: 0.0363

Sequence | z-score
CCUUAGAGAAAAUUAUUGCTT against Hgf | inactive: 0.1
CGAGGAGAUAUCCAUCAAUTT against Nbr1 | inactive: 1.9
GGCUGAACAGCACCUCAUGTT against Rnf30 | inactive: -1.3
GGGAAGAGCCCUAAUAUUATT against Aldh1a2 | inactive: -0.0979
GGAGAAAACUCUAAAUAACTT against Klra2 | inactive: 0.536
GCGGCAUCUAAAGCUCCACTT against Cdh1 | inactive: -1.31
GCAUCCUACGCAUUAAAUCTT against Olfr146 | inactive: -0.12
GGAAGUAGCAACAAGCUACTT against Brd2 | inactive: 0.0726
GGUGGAAGCAAUUUUAAAUTT against Trpc7 | inactive: 1.54
GGUUCACCAUCAAACCCUUTT against 1300012G16Rik | inactive: -0.368
GGAAGUGUCAGGAUAUAUUTT against 4930428O21Rik | inactive: -1.16
GGAGUUUGUAUCAAACUUATT against Zcchc8 | inactive: 0.358
GCAUGAAUCCAGCUCGAUCTT against Aqp4 | inactive: 1.79
GGAUGGACAAAAUACUUAATT against B230354K17Rik | inactive: 0.638
GGUCCCUCUACCCAAAGUUTT against 5730427N09Rik | inactive: -1.17
GGACAGGCUCUACCAGUAUTT against Syt15 | inactive: -0.755
GCCUGGUUUCUCCCUCAAATT against AW209059 | inactive: 0.0462
CCCUAUUAAUCUCAUUGUGTT against P2rx4 | inactive: -0.185
CGCGACUUCCACAAACCUGTT against LOC574530 | inactive: 1.47
GCUGUCAGAGUGGUGAUAUTT against Zdhhc7 | inactive: -0.134
UUGUGGGCUUAUGGAUAUUTT against 9430025C20Rik | inactive: 0.899
GGCUAUUAGGUUUGAAAUCTT against Grsf1 | inactive: 1.02
GCUUAACAAUUUCUCCCGCTT against C230086A09Rik | inactive: 1.11
GCUGAAUUUAGAGAGCACATT against BC030183 | inactive: 0.812
GGGUGUAAUAUCAAAAAAGTT against Atp7a | inactive: -0.0244

Exported comma-delimited: part of the list above
Sequence,z-score
GGAAGUGUCAGGAUAUAUUTT against 4930428O21Rik,inactive: -1.16
GGAGUUUGUAUCAAACUUATT against Zcchc8,inactive: 0.358
GCAUGAAUCCAGCUCGAUCTT against Aqp4,inactive: 1.79
